Assay results reported in PubChem BioAssay AID1347075 (National Center for Advancing Translational Sciences (NCATS), 2019).
Several values for one entry are separate records, joined by “and”; a condition that tells them apart may be missing. Equal values may be shown once. Among all 400,000 compounds or so, about 5,500 (1.4%) were called active. This list was built around the results that the source calls inconclusive (neither active nor inactive); the mix of calls is not that of the screen. Calls follow the shape of the dose curve; as a rule, active = well fitted cell-killing curve with a large enough effect; inconclusive = small, poorly fitted or top-dose-only effect, or effect the other way; inactive = flat fitted curve, though single readings scatter. A potency beside an inconclusive call is a rough fit, not a confirmed value.
% is scaled to controls: 0 for no effect and ±100 for the full control effect; potency is read from the fitted curve at half-maximal effect.

Experiment: qHTS assay for MDR1-selective chemotherapeutics: Primary screen using the parental adenocarcinoma cell KB-3-1; also: nearly all actives have a fitted effect of over 60% in size
Details: KB-3-1 viability, CellTiter-Glo ATP luminescence, 72 h; activity change, negative = cytotoxic: at 46.1 µM (top of the series)
Procedure, shortened: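 KB-3-1 cells, DMEM (no phenol red) + 10% FBS; compound by pin transfer, 72 h, 37 °C. Readout: CellTiter-Glo luminescence after 10 min. Data normalized, curve-fitted.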
In the case of `CCN1CCCC1CNC(=O)c1ccc(Sc2ccc(F)cc2)c([N+](=O)[O-])c1` (centres undefined), the Potency is reported as inconclusive: 18.4 µM [cytotoxic, single point]. For `Cc1ccc2ccc3cccnc3c2n1`, the Potency was active: 11.6 µM. In the case of `Cc1csc(NC(=O)c2cc([N+](=O)[O-])cc([N+](=O)[O-])c2)n1`, the Potency is reported as inconclusive: 29.1 µM [rising, single point]. In the case of `Cc1noc(NS(=O)(=O)c2ccc(NC(=O)CSc3nc4c(cc3C#N)CCCC4)cc2)c1C`, the Potency is reported as “inactive”. With `NC(=O)c1cccc(-c2ccnc3c2CC(C(=O)Nc2cccc(C(F)(F)F)c2)O3)c1` (centres undefined) the Potency was inconclusive: 18.4 µM [cytotoxic, partial curve]. In the case of `N#Cc1cccc(S(=O)(=O)NCC(=O)NCc2ccc3c(c2)OCO3)c1`, the Potency is reported as “inactive”. In the case of `c1csc(-c2nc3nc4ccccc4nc3n2Cc2ccc3c(c2)OCO3)c1`, the Potency is reported as inconclusive: 23.1 µM [cytotoxic, single point]. In the case of `NC(=S)NN=Cc1cc(-c2cccc(N)c2)ccn1`, the Potency is reported as inconclusive: 2.31 µM [cytotoxic, full curve]. For `COc1ccc(-c2ccc(C)cc2)cc1[C@H]1[C@@H]2C=CCC[C@@]2(C)C(=O)N1Cc1ccccc1`, the Potency was inconclusive: 29.1 µM [cytotoxic, single point]. With `Cc1noc(C)c1NC(=O)Nc1ccc2c(c1)C(=O)N([C@H](C)CO)C[C@H](C)[C@@H](CN(C)C(=O)NC1CCCCC1)O2` the Potency was inconclusive: 1.3 µM [cytotoxic, full curve]. In the case of `COc1cccc(C2CC(c3ccc(F)cc3)Nc3nc(N)nn32)c1` (centres undefined), the activity change, negative = cytotoxic is reported as inconclusive: 32%. With `CCCc1ccc(OCc2ccc(C(=O)N3CCSCC3)o2)cc1` the Potency was inconclusive: 29.1 µM [cytotoxic, single point]. With `O=C1CCC[C@@H]2C=C[C@H](c3ccc(Br)cc3)[C@H]3CCN1[C@@H]32` the Potency was inconclusive: 16.4 µM [cytotoxic, single point]. In the case of `CCCCNC(=S)NNC(=O)c1cc(-c2ccncc2)nc2ccccc12`, the Potency is reported as inconclusive: 29.1 µM [rising, single point]. With `[O-][N+](=NC1C=Cc2ccccc21)C1C=Cc2ccccc21` (centres undefined) the activity change, negative = cytotoxic was inconclusive: 39.3%. In the case of `O=C(Nc1ccccc1-c1ccccc1NC(=O)c1ccco1)c1ccco1`, the Potency is reported as “inactive”. For `O=C(Nc1ccc(S(=O)(=O)N2CCCCC2)cc1)c1ccc(CN2CCc3ccccc3C2)cc1`, the Potency was inconclusive: 0.517 µM [cytotoxic, full curve]. With `CCOC(=O)c1ccc(NC(=O)C2=C(C)Nc3nc(CCCO)nn3C2c2cccc(C)c2)cc1` (centres undefined) the activity change, negative = cytotoxic was inconclusive: 30.1%. In the case of `CC1(C)SC(=S)N(/N=C/c2ccccc2)C1N(O)C(=O)Nc1ccc([N+](=O)[O-])cc1` (centres undefined), the Potency is reported as inconclusive: 18.4 µM [cytotoxic, single point]. In the case of `COc1cccc(OC)c1C(=O)N=c1sc2cc(S(C)(=O)=O)ccc2n1C`, the Potency is reported as inconclusive: 29.1 µM [rising, single point]. For `c1ccc(-c2nc3ccccn3c2NC2CCCC2)nc1`, the Potency was “inactive”. In the case of `COc1ccc2[nH]c(=O)c(CN(C3CCCCC3)C(c3nnnn3Cc3ccco3)C(C)C)cc2c1` (centres undefined), the Potency is reported as inconclusive: 29.1 µM [cytotoxic, single point]. In the case of `CC(=O)C1=C(C)NC(SCC(N)=O)=C(C#N)C1c1cccs1` (centres undefined), the Potency is reported as “inactive”. With `CC(C)(C)c1nn(-c2ccccc2)c2[nH]c(=O)c(C=O)cc12` the Potency was inconclusive: 29.1 µM [cytotoxic, single point]. In the case of `O=C(Nc1ccc(Cl)cc1)c1nc[nH]c1C(=O)NCCN(CCNC(=O)c1[nH]cnc1C(=O)Nc1ccc(Cl)cc1)CCNC(=O)c1[nH]cnc1C(=O)Nc1ccc(Cl)cc1`, the Potency is reported as inconclusive: 29.1 µM [cytotoxic, single point]. In the case of `CCCCNc1nc2c(S(=O)(=O)c3ccc(C)cc3)nnn2c2ccsc12`, the Potency is reported as “inactive”. For `COCc1nnc(NC(=O)c2cccc(NC(=O)c3ccccc3)c2)s1`, the Potency was “inactive”. In the case of `CC(OC(=O)c1ccc(O)cc1)C(=O)Nc1nc(-c2ccccc2)cs1` (centres undefined), the Potency is reported as inconclusive: 23.1 µM [cytotoxic, single point]. For `COCCN1CCN(C(=O)c2ccc3nc(Cc4ccc(OC)c(OC)c4)oc3c2)CC1`, the Potency was active: 4.61 µM. With `Cc1ccc(CS/C(Nc2ccccc2C)=C(\C#N)C(=O)NCc2ccco2)c(C)c1` the Potency was inconclusive: 18.4 µM [cytotoxic, single point]. With `COc1ccc(CCNC(=O)c2ccc(=O)[nH]c2)cc1` the Potency was “inactive”. For `Cc1occc1C(=O)N/N=C/c1c(O)ccc2ccccc12`, the Potency was active: 6.51 µM. In the case of `CN1CCN(S(=O)(=O)c2cccc(C(=O)N(Cc3nnc(-c4ccccc4Cl)o3)C3CC3)c2)CC1`, the Potency is reported as “inactive”. With `CCn1c(SCC(=O)Nc2nc(-c3ccccc3)cs2)nnc1-c1ccccc1O` the Potency was inconclusive: 23.1 µM [cytotoxic, single point]. In the case of `CCOc1ncccc1C(=O)NCCc1ccc(OC)cc1`, the Potency is reported as inconclusive: 29.1 µM [cytotoxic, single point]. In the case of `O=C(Nc1ccc(N2CCN(C(=O)c3ccco3)CC2)cc1)c1ccc(Br)cc1`, the Potency is reported as “inactive”. For `CC(C)(C)c1ccc(OCCCNC2CCCC2)cc1`, the Potency was inconclusive: 29.1 µM [cytotoxic, single point]. With `COc1ccc(C(NC(C)=O)c2ccc3cccnc3c2O)c(OC)c1` (centres undefined) the Potency was active: 7.31 µM. In the case of `CCC(=O)c1cc2c(C)cc(=O)oc2c(C)c1OC(=O)C(C)C`, the Potency is reported as inconclusive: 29.1 µM [rising, single point]. With `O=C1NC(c2cccc(Cl)c2)Nc2ccccc21` (centres undefined) the Potency was inconclusive: 29.1 µM [cytotoxic, single point]. With `O=[N+]([O-])c1ccc(N2CCN(S(=O)(=O)c3ccc(Cl)cc3)CC2)cc1NCC1CCCO1` (centres undefined) the Potency was inconclusive: 29.1 µM [cytotoxic, single point]. In the case of `CCOc1ccccc1NC(=S)Nc1ccc2cn[nH]c2c1`, the Potency is reported as “inactive”. For `CCOC(=O)N1CCN(C(=O)/C(=C/c2ccc(Cl)cc2)NC(=O)c2ccccc2)CC1`, the Potency was inconclusive: 20.6 µM [cytotoxic, single point]. With `O=C(Nc1nccs1)c1ccc(Cl)c(S(=O)(=O)N2CCOCC2)c1` the Potency was “inactive”. With `CCc1c(C)nc2ncnn2c1N1CCC(C(=O)NCc2cccc(OC)c2)CC1` the Potency was inconclusive: 20.6 µM [cytotoxic, single point]. For `COc1ccc(C(CNC(=O)c2cccc(S(=O)(=O)Nc3ccc(C)cc3)c2)N2CCOCC2)cc1` (centres undefined), the Potency was inconclusive: 29.1 µM [rising, single point]. For `Cc1ccc(S(=O)(=O)N2CCCc3cc(NS(=O)(=O)c4ccc(F)cc4)ccc32)cc1`, the Potency was “inactive”. For `O=C1CCCC2=C1Sc1ccc(Cl)cc1N2`, the activity change, negative = cytotoxic was inconclusive: -37.5%. For `CCc1ccc(-c2cc(C)no2)cc1S(=O)(=O)NCc1ccco1`, the Potency was inconclusive: 14.6 µM [cytotoxic, partial curve, poor fit]. In the case of `CCc1cccc(NC(=O)Cc2ccc(OC)c(OC)c2)c1`, the Potency is reported as inconclusive: 8.2 µM [cytotoxic, partial curve]. With `Cc1ccc(C(=O)N/N=C(/CC(=O)c2cccs2)C(F)(F)F)cc1` the Potency was inconclusive: 29.1 µM [cytotoxic, single point]. In the case of `CCOc1ccccc1NC(=O)c1cc(-c2ccccn2)nc2ccccc12`, the Potency is reported as active: 18.4 µM. For `COc1ccc2c(c1)C[C@]1(C)c3ccccc3C(=O)N(Cc3ccccc3)[C@H]21`, the Potency was inconclusive: 29.1 µM [cytotoxic, single point] and inconclusive: 18.4 µM [cytotoxic, single point]. With `O=C(COC(=O)c1ccco1)NC1CCCC1` the Potency was “inactive”. In the case of `CCn1c2ccccc2c2cc(NC(=O)c3cccc([N+](=O)[O-])c3C)ccc21`, the Potency is reported as inconclusive: 18.4 µM [cytotoxic, single point]. For `CCN1C(=O)[C@H]2[C@@H](c3ccc(-c4ccc(Cl)c(Cl)c4)cc3)N[C@@](C)(C(=O)OC)[C@H]2C1=O`, the Potency was inconclusive: 29.1 µM [cytotoxic, single point]. In the case of `CCC(C(=O)OCC(=O)N(CC)c1c(N)n(Cc2ccccc2)c(=O)[nH]c1=O)c1ccccc1` (centres undefined), the Potency is reported as “inactive”. In the case of `CCn1c(SCC(=O)NCc2ccco2)nnc1-c1cccc(N(C)C)c1`, the Potency is reported as “inactive”. For `Oc1ccc(C[C@H]2CN([C@@H](Cc3ccc(O)cc3)CN3CCC[C@@H]3CN3C(=S)NC[C@@H]3Cc3ccccc3)C(=S)N2CCc2ccccc2)cc1`, the Potency was inconclusive: 29.1 µM [cytotoxic, single point]. For `Cc1ccc(NC(=O)c2ccccn2)c(Br)c1`, the Potency was “inactive”. With `CC(=O)Nc1cccc(-c2ccnc3c2CC(C)(C(=O)NCCc2ccccc2)O3)c1` (centres undefined) the Potency was active: 4.11 µM. For `CN(C)c1ncc(S(=O)(=O)c2ccc(Cl)cc2)c(-c2ccc(Cl)cc2Cl)n1`, the Potency was inconclusive: 20.6 µM [cytotoxic, partial curve, poor fit]. With `Nc1nnc(SCc2ccc(F)cc2Cl)s1` the Potency was “inactive”. With `COc1ccc(F)cc1-c1cc(NC=O)c2ncc(-c3cc(OC)c(OC)c(OC)c3)n2c1` the Potency was inconclusive: 3.66 µM [cytotoxic, full curve]. For `C=C1C[C@@H]2C[C@@H]2CN(S(=O)(=O)c2ccc(C)cc2)[C@@H]1COCc1ccccc1`, the Potency was inconclusive: 16.4 µM [cytotoxic, partial curve, poor fit]. For `Cc1ccc(/C=C/C(=O)c2ccccc(=O)c2O)c(C)c1`, the Potency was active: 16.4 µM. In the case of `Brc1ccccc1OCCCCn1cnc2ccccc21`, the Potency is reported as active: 5.17 µM. For `COc1ccc(CNc2ncnc3sccc23)cc1OC`, the Potency was inconclusive: 2.59 µM [cytotoxic, full curve]. With `CN(C)S(=O)(=O)N1CCC(Oc2ccc(C(=O)N3CCCCCCC3)cc2)CC1` the Potency was inconclusive: 23.1 µM [cytotoxic, single point].
